Assay: general procedure: Fmoc solid-phase peptide synthesis; polystyrene resin preloaded with Fmoc hydroxylamine ether tether; TBTU/HOBT
Conditions: whole synthesis, scale 0.25 mmol

For Cys-Asn-Gly-Arg-Cys, which crude mass is on record?
The crude mass was 120 mg.
